Sequences of proteins named here, by UniProt entry; tags and fusion partners are left off. A change or cut given only in a name is not applied to a line headed by its entry. Residues count along the entry.
UniProt Q9GZV5, residues 13-119: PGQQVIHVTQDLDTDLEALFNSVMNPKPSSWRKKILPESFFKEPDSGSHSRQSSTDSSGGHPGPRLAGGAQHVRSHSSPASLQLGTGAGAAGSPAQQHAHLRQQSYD
UniProt P28347: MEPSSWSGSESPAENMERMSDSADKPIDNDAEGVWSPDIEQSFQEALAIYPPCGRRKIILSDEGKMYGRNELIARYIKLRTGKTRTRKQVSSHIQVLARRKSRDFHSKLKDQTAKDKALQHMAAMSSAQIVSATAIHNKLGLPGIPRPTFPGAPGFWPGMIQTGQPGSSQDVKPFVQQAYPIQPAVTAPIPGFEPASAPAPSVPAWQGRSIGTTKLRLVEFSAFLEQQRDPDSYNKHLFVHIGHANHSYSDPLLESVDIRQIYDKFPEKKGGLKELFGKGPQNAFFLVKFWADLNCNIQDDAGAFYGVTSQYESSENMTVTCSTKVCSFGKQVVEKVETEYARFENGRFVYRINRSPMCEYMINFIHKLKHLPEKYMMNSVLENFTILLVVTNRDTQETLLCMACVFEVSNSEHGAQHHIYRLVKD

According to paper PMC12719775, “Alexidine is a TAZ-specific small-molecule inhibitor that suppresses breast cancer invasion and metastasis” (iScience, 2025):

Columns and labels:
[1] = biological target: FLAG-SmBiT-TAZ (interacting domain of TAZ, aa 13-119) (UniProt Q9GZV5); assay: split reporter; NanoBiT in HEK293T lysates (passive lysis buffer) co-expressing FLAG-SmBiT-TAZ and His-LgBiT-TEAD1; increasing amounts of lysate; Nano-Glo Live substrate
[2] = biological target: FLAG-SmBiT-TAZ (interacting domain of TAZ, aa 13-119) (UniProt Q9GZV5); assay: AlphaScreen or HTRF; TR-FRET in HEK293T lysates co-expressing the biosensor; Tb-conjugated anti-FLAG and D2-conjugated anti-His antibodies; increasing amounts of lysate; also with alexidine in a dose-response
[3] = biological target: FLAG-SmBiT-TAZ (interacting domain of TAZ, aa 13-119) (UniProt Q9GZV5); assay: co-IP; HEK293T cells co-transfected with both biosensor plasmids, 1% NP-40 lysates; FLAG-SmBiT-TAZ precipitated with anti-FLAG antibody, blot with anti-His; also after treating the cells with DMSO, alexidine, caspofungin or VT104 (10 uM, 48 h)

Measured: binding

His-LgBiT-TEAD1 (interacting domain of TEAD1, aa 194-411) (from UniProt P28347) (domain or fragment)
binds: all assays above

These are yes or no findings as the source states them, for the method shown. A result given as binding can be weak or reduced; the word gives no strength. For part of these data: In cells and extracts the contact can be indirect.
